The test deals with TTI2_Q6NXR4_270_ILGVHCLHHIVLNVPAADLLQYNR (UniProt Q6NXR4). The test can be described thus: probe-labelled cysteine peptide fold change vs DMSO (competition) (log2 fold change); higher = less target engagement (more negative = stronger competition). Particulars: THP-1, incubation time: 4 h.

By UniProt entry, the sequences of proteins in these tests, tags left out. Where a name states a change or a piece, a line headed by the entry shows the natural chain unless it says otherwise.
UniProt Q6NXR4: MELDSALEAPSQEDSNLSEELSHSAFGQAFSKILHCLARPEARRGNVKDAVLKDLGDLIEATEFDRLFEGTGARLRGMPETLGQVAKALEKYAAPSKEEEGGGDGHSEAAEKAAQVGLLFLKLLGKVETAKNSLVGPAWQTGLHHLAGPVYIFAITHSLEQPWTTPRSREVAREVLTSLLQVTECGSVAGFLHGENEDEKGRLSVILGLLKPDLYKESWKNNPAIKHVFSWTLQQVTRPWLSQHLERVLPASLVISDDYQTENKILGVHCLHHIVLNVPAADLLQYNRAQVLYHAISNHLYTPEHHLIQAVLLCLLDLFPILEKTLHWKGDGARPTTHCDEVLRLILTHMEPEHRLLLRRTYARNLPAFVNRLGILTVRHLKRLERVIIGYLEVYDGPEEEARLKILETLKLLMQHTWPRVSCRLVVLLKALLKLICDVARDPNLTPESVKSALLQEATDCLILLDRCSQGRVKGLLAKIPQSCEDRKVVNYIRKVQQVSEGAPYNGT

Here are results for one compound from the supplement of paper PMC12067093, “Discovery and optimisation of a covalent ligand for TRIM25 and its application to targeted protein ubiquitination” (Chemical Science, 2025).

Some of the results follow.
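Further: competitive chemoproteomic profiling in live THP-1 cells with an iodoacetamide desthiobiotin (IA-DTB) probe, comparing probe-labelled peptide intensities in compound-treated cells against DMSO-treated controls.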

`CC1Cc2ccccc2N1C(=O)C1CCCN(C(=O)CCl)C1` (mixture of isomers) [TRIM25 ligand 11 (diastereomer mixture)]: the “probe-labelled cysteine peptide fold change” value was found to be 0.0973 (10 µM) and 0.314 (50 µM).
